From article PMC7515718 come the findings set out here.

The chains behind the UniProt entries cited, without tags or fusion partners.
UniProt O14503: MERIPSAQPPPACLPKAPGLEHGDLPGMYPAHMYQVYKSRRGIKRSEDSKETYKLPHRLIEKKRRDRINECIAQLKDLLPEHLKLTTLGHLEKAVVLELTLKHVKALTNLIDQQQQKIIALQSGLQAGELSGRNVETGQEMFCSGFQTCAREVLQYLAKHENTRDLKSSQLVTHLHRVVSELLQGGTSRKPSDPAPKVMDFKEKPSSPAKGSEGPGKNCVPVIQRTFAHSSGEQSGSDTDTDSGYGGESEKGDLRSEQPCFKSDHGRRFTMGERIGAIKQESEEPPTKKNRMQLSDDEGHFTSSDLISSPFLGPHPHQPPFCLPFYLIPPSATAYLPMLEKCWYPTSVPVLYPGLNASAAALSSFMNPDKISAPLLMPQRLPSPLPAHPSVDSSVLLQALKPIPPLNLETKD

One test deals with T1, FLAG tagged CTCF (UniProt P49711).
T1 sequence: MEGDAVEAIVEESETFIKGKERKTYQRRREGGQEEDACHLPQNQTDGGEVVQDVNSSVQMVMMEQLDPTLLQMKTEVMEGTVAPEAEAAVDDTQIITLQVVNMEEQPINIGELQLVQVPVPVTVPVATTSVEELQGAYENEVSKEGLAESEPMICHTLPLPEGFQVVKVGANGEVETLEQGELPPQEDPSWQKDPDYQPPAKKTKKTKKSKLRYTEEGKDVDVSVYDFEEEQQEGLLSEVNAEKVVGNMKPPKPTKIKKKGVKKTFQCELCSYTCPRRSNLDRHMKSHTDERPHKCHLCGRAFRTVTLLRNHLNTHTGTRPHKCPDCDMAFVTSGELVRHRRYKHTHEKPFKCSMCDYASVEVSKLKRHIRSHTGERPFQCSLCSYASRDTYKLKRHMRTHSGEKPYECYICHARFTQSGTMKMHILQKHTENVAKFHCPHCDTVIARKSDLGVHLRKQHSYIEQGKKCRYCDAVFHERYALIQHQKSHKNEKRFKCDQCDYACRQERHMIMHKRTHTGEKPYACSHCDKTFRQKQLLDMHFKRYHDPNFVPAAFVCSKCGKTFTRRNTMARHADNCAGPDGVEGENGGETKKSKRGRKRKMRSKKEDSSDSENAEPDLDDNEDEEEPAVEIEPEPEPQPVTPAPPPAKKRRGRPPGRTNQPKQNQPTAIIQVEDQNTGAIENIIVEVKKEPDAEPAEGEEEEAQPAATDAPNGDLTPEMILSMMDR
Kind of test: co-IP; nuclear extract of HeLa-S3 cells overexpressing FLAG tagged CTCF incubated with Flag M2 beads at 4°C overnight; three washes with IP wash buffer (20 mM Tris pH 7.9, 0.1 M KCl, 5 mM MgCl2, 10% glycerol, 0.1% Tween-20); western blot. On the technique in general: In western blotting, separated proteins are transferred to a membrane and probed.

For a further test, the target named is BIOTIN tagged BHLHE40 (UniProt O14503). Nature of the test: co-IP; BIOTIN IP: soluble nuclear extract of HeLa-S3 cells overexpressing BIOTIN tagged BHLHE40 incubated with Dynabeads M-280 Streptavidin at 4°C overnight; three washes with IP wash buffer (20 mM Tris pH 7.9, 0.1 M KCl, 5 mM MgCl2, 10% glycerol, 0.1% Tween-20); western blot.

Results are given in words; binding and its absence hold for the method and conditions named. Binding seen in cells or lysates may run through a third protein. Some binding calls cover weakened binding; strength is not graded here. For some assays here: Sequences can lack the tags named with a protein.

In the case of BHLHE40 (from UniProt O14503 1-412), the binding result with FLAG tagged CTCF is on record as “binds”.

B1: CTCF (protein, UniProt P49711 1-727)
chain: MEGDAVEAIVEESETFIKGKERKTYQRRREGGQEEDACHLPQNQTDGGEVVQDVNSSVQMVMMEQLDPTLLQMKTEVMEGTVAPEAEAAVDDTQIITLQVVNMEEQPINIGELQLVQVPVPVTVPVATTSVEELQGAYENEVSKEGLAESEPMICHTLPLPEGFQVVKVGANGEVETLEQGELPPQEDPSWQKDPDYQPPAKKTKKTKKSKLRYTEEGKDVDVSVYDFEEEQQEGLLSEVNAEKVVGNMKPPKPTKIKKKGVKKTFQCELCSYTCPRRSNLDRHMKSHTDERPHKCHLCGRAFRTVTLLRNHLNTHTGTRPHKCPDCDMAFVTSGELVRHRRYKHTHEKPFKCSMCDYASVEVSKLKRHIRSHTGERPFQCSLCSYASRDTYKLKRHMRTHSGEKPYECYICHARFTQSGTMKMHILQKHTENVAKFHCPHCDTVIARKSDLGVHLRKQHSYIEQGKKCRYCDAVFHERYALIQHQKSHKNEKRFKCDQCDYACRQERHMIMHKRTHTGEKPYACSHCDKTFRQKQLLDMHFKRYHDPNFVPAAFVCSKCGKTFTRRNTMARHADNCAGPDGVEGENGGETKKSKRGRKRKMRSKKEDSSDSENAEPDLDDNEDEEEPAVEIEPEPEPQPVTPAPPPAKKRRGRPPGRTNQPKQNQPTAIIQVEDQNTGAIENIIVEVKKEPDAEPAEGEEEEAQPAATDAPNGDLTPEMILSMMDR
Regarding B1, the binding result with BIOTIN tagged BHLHE40 is reported as “binds”.
